Results on one molecule are retold here after US20110251090A1.

Amino acid sequences for entries named in this document (tags omitted).
UniProt Q8IZL8: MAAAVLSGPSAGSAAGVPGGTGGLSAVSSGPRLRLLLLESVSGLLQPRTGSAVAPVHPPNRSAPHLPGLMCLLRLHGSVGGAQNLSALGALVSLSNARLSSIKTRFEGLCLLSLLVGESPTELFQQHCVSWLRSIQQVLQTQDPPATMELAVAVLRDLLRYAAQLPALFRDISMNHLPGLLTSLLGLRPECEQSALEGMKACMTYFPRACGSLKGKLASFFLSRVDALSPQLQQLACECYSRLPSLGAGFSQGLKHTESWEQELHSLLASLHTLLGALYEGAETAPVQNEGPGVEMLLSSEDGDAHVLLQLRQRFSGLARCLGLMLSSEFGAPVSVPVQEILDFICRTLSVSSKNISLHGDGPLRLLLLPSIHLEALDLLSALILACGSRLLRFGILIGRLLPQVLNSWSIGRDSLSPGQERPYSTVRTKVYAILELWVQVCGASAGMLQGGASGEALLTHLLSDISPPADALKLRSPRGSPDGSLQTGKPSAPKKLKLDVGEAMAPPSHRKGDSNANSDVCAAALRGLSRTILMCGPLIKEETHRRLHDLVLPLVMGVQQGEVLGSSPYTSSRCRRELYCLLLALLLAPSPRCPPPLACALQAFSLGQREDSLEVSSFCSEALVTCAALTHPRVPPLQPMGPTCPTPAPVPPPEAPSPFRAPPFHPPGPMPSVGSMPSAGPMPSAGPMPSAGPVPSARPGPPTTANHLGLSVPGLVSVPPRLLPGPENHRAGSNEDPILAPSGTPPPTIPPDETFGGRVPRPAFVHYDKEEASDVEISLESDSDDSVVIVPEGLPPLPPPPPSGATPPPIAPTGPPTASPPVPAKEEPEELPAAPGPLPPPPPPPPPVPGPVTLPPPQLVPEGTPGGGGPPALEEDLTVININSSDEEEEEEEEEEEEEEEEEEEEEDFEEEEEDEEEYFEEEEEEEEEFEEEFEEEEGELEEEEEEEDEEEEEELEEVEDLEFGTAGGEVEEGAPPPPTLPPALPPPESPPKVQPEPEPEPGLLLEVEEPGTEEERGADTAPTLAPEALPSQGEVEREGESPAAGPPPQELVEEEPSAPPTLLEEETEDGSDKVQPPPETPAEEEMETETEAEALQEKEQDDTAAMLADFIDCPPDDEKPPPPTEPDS

These are yes or no findings as the source states them, for the method shown. Binding seen in cells or lysates may run through a third protein. Some binding calls cover weakened binding; strength is not graded here. Sequences can lack the tags named with a protein.

The assay deals with PELP1-HA (human) (UniProt Q8IZL8). Briefly: co-immunoprecipitation from co-transfected COS-7 cells, western blot with anti-Flag antibody (FIG. 8A right).

B1: LAS1L-Flag (protein, not shown: small tags and cut ends)
chain: MSWESGAGPGLGSQGMDLVWSAWYGKCVKGKGSLPLSAHGIVVAWLSRAEWDQVTVYLFCDDHKLQRYALNRITVWRSRSGNELPLAVASTADLIRCKLLDVTGGLGTDELRLLYGMALVRFVNLISERKTKFAKVPLKCLAQEVNIPDWIVDLRHELTHKKMPHINDCRRGCYFVLDWLQKTYWCRQLENSLRETWELEEFREGIEEEDQEEDKNIVVDDITEQKPEPQDDGKSTESDVKADGDSKGSEEVDSHCKKALSHKELYERARELLVSYEEEQFTVLEKFRYLPKAIKAWNNPSPRVECVLAELKGVTCENREAVLDAFLDDGFLVPTFEQLAALQIEYEDGQTEVQRGEGTDPKSHKNVDLNDVLVPKPFSQFWQPLLRGLHSQNFTQALLERMLSELPALGISGIRPTYILRWTVELIVANTKTGRNARRFSAGQWEARRGWRLFNCSASLDWPRMVESCLGSPCWASPQLLRIIFKAMGQGLPDEEQEKLLRICSIYTQSGENSLVQEGSEASPIGKSPYTLDSLYWSVKPASSSFGSEAKAQQQEEQGSVNDVKEEEKEEKEVLPDQVEEEEENDDQEEEEEDEDDEDDEEEDRMEVGPFSTGQESPTAENARLLAQKRGALQGSAWQVSSEDVRWDTFPLGRMPGQTEDPAELMLENYDTMYLLDQPVLEQRLEPSTCKTDTLGLSCGVGSGNCSNSSSSNFEGLLWSQGQLHGLKTGLQLF
Consider B1, for which the binding result was “binds”.
